PubChem BioAssay AID504784, Drosophila RNAi Screening Center – 2011

Screen: 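Genome-wide knock-down for genes giving too much or too little stored lipid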 (primary screen)
System: Drosophila Kc167 embryonic cells
Reagent: long dsRNA against Drosophila genes, about 250 ng dsRNA per well
Duration: 4 days
Conditions: cells fed 400 µM oleic acid bound to BSA
Read-out: 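Microscope images give a droplet-to-nucleus area ratio, taken as log and converted to a screen-wide B-score; higher values mean greater lipid storage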
Direction: droplet/nuclear area B-score: higher = more stored lipid (overstorage)
In all, the deposit lists about 17,000 reagents; this is an unselected part of those that have a named target and a result. 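Each column is one replicate's B-score; the combined score over replicates was not deposited, so single values may mislead.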 A plus sign joins genes that one reagent is predicted to hit. Further read-outs or replicates are left out here.

Dlish [SID104185808] scored droplet/nuclear area B-score, replicate 1 = 0.394.
With knock-down of CG6013 [SID104195739], the record shows droplet/nuclear area B-score, replicate 1 = -0.0853.
Against CG32576 + UQCR-14 [SID104199662], the values are droplet/nuclear area B-score, replicate 1 = 1.48.
After knock-down of TwdlE [SID104182184], the record shows droplet/nuclear area B-score, replicate 1 = -0.434.
CG1791 [SID104197933] gave droplet/nuclear area B-score, replicate 1 = 0.455.
coil [SID104187034] showed droplet/nuclear area B-score, replicate 1 = -1.24.
With knock-down of CG12307 [SID104181951], the screen gave droplet/nuclear area B-score, replicate 1 = 0.509.
skd [SID104191690] gave droplet/nuclear area B-score, replicate 1 = 1.56.
Against foi [SID104190511], the values are droplet/nuclear area B-score, replicate 1 = 0.000308.
For CG4741 [SID104184277], the entry reads droplet/nuclear area B-score, replicate 1 = -0.823.
Knock-down of ND-B22 [SID104182985] gave: droplet/nuclear area B-score, replicate 1 = -1.19.
With knock-down of Liprin-beta [SID104189587], the screen gave droplet/nuclear area B-score, replicate 1 = 0.893.
Liprin-beta [SID104202696] gave droplet/nuclear area B-score, replicate 1 = 0.779.
Against DptA [SID104187196], the entry reads droplet/nuclear area B-score, replicate 1 = -0.14.
After knock-down of beat-Vc [SID104192719], the screen gave droplet/nuclear area B-score, replicate 1 = 1.47.
With knock-down of beat-Vc [SID104194641], the record shows droplet/nuclear area B-score, replicate 1 = 0.117.
After knock-down of CG4619 [SID104182556] the results were droplet/nuclear area B-score, replicate 1 = -0.0179.
Cpr72Ea [SID104190243] showed droplet/nuclear area B-score, replicate 1 = 0.0253.
Karybeta3 [SID104192147] showed droplet/nuclear area B-score, replicate 1 = -2.62.
After knock-down of CG15020 [SID104188266], the screen gave droplet/nuclear area B-score, replicate 1 = -1.63.
Depletion of Ir56a [SID104185568] resulted in: droplet/nuclear area B-score, replicate 1 = -0.405.
Depletion of CG31337 [SID104192773] resulted in: droplet/nuclear area B-score, replicate 1 = 0.195.
Against Nhe1 [SID104180554], the entry reads droplet/nuclear area B-score, replicate 1 = 0.636.
Silencing of Gpo1 [SID104186920] gave: droplet/nuclear area B-score, replicate 1 = 1.18.
With knock-down of CG15035 [SID104197759] the results were droplet/nuclear area B-score, replicate 1 = -0.338.
Hand [SID104182448] showed droplet/nuclear area B-score, replicate 1 = -1.57.
With knock-down of CG10734 [SID104185790] the results were droplet/nuclear area B-score, replicate 1 = 0.114.
After knock-down of CG3902 [SID104190179], the screen gave droplet/nuclear area B-score, replicate 1 = -0.437.
Prosalpha2 [SID104196590] showed droplet/nuclear area B-score, replicate 1 = 1.09.
CG5194 [SID104190284] gave droplet/nuclear area B-score, replicate 1 = 2.01.
Silencing of EAChm [SID104189802] came out at: droplet/nuclear area B-score, replicate 1 = -1.89.
With knock-down of CG13454 [SID104189793], the screen gave droplet/nuclear area B-score, replicate 1 = -0.0738.
With knock-down of CG12909 [SID104186016] the results were droplet/nuclear area B-score, replicate 1 = 0.363.
For CG10195 [SID104181818], the values are droplet/nuclear area B-score, replicate 1 = 0.713.
CG32201 [SID104201919] gave droplet/nuclear area B-score, replicate 1 = 1.02.
PIG-G [SID104186615] scored droplet/nuclear area B-score, replicate 1 = -1.42.
For CatB [SID104182986], the entry reads droplet/nuclear area B-score, replicate 1 = 2.27.
After knock-down of CG9396 [SID104196279], the screen gave droplet/nuclear area B-score, replicate 1 = -0.299.
Against Tsp2A [SID104198376] the deposit lists droplet/nuclear area B-score, replicate 1 = -0.0427.
Depletion of su(f) [SID104200699] gave: droplet/nuclear area B-score, replicate 1 = -1.2.
